Experimental data: article PMC11459619, “Evaluating the amoeba thioredoxin reductase selenoprotein as potential drug target for treatment of Acanthamoeba infections” (International Journal for Parasitology: Drugs and Drug …, 2024)

System: human corneal epithelial cells (HCECs)
Test: Cytotoxicity test on human corneal epithelial cells (CellTiter 96 AQueous One)
Assay type: cell-based
Conditions: ratio of TD50 (HCEC) to IC50 (Neff trophozoites)
Description: Cytotoxicity of the compounds towards human corneal epithelial cells (HCECs) (Innoprot, ref. P10871) was determined ([Loufouma Mbouaka et al., 2023]) in 96-well microplates. The HCECs (1 × 10^4 cells/well) were grown in 100 μL of corneal epithelial cell medium (CEpiCM) (Innoprot, ref. P60131) supplemented with 1% of corneal epithelial cell growth supplement (CEpiCGS), 2% of fetal bovine serum (FBS) and 1% antibiotic mix: 10,000 U penicillin, 10 mg streptomycin and 25 μg amphotericin B per milliliter. After overnight incubation, cytotoxicity was evaluated adding 20 μL of CellTiter 96® AQueous One Solution Reagent (Promega, Madison, WI, USA). After 1 h of incubation at 37 °C, the absorbance at 490 nm was read using a spectrophotometer (Tecan, Spark 10M, Switzerland).
The TD50 values were calculated using the same method as the IC50 values with GraphPad Prism. Moreover, the therapeutic index was determined as the ratio of TD50 to IC50 ([Muller and Milton, 2012]).

| Compound | Therapeutic index (TI) 24 h | Therapeutic index (TI) 48 h | Therapeutic index (TI) 72 h |
| --- | --- | --- | --- |
| CC(=O)OC[C@H]1O[C@@H]([S-])[C@H](OC(C)=O)[C@@H](OC(C)=O)[C@@H]1OC(C)=O.CCP(CC)CC.[Au+] [Auranofin, auranofin] | 0.02 | 0.056 | 0.17 |
| COc1ccc([N+](=O)[O-])c(S(=O)(=O)c2ccc(Cl)cc2)n1 [TRi-1] | 0.5 | 1.10 | 1.96 |
